Assay [1] concerns the target T1, LIN9 (mouse (endogenous in E14 ESCs)), Q8C735.
T1 chain: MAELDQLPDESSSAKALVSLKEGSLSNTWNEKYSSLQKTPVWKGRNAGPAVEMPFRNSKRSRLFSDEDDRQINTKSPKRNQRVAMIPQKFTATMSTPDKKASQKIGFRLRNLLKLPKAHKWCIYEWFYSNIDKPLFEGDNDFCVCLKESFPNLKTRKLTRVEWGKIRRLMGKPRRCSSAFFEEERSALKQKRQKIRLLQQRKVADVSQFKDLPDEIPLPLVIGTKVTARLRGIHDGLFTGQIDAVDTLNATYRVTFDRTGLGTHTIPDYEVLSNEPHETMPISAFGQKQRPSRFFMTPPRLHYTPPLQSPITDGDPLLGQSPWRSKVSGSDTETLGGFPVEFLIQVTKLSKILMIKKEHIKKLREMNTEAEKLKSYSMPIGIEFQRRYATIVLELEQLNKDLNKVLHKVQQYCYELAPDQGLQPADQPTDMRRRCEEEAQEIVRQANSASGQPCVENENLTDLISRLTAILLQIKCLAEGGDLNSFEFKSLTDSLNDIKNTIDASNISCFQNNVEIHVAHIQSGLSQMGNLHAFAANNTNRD
Kind of assay: co-IP; nuclear extracts of mouse ESCs immunoprecipitated with LIN9 antibody (ab62329) overnight at 4°C, Protein-G Dynabeads, washed 5 times with TNN (120 mM NaCl, 0.5% NP40); nonspecific IgG as control; immunoblotting. To be noted: remark: other sources report otherwise.

Assay [2] addresses LIN9 (mouse (endogenous in E14 ESCs)) (UniProt Q8C735). Described as above.

Results are given in words; binding and its absence hold for the method and conditions named. In cells and extracts the contact can be indirect. Some entries that bind do so weakly or less than the wild type.

B1: p107, Q64701 1-1063 (protein)
chain: MFEDEPHAEGAAAVAAAREALQALCQELNLDEGSAAEALDDFTAIRGNYSLEGEVIHWLACSLYVACRKSIIPTVGKGVMEGNCVSLTRILRSAKLSLIQFFSKMKKWMDMSNLPQEFRERIERLERNFEVSTVIFKKFEPIFLDIFQNPYEEPPKLPRSRKQRRIPCSVKDLFNFCWTLFVYTKGNFRMIGDDLVNSYHLLLCCLDLIFANAIMCPNRRDLLNPSFKGLPSDFHAPDFKAAEEPPCIIAVLCDLHDGLLVEAKGIKEHYFKPYISKLFDKKILKGECLLDLSSFTDNSKAVNKEYEEYVLTVGDFDERIFLGADAEEEIGTPRKFTADTPFGKLTSQASVECNLQQHFEKKRSFAPSTPLTGRRYLQEKEAVTTPVASATQSVSRLQSIVAGLKSAPSEQLLNIFESCMRNPMGNIIKIVKGIGETFCQHYTQSTDKQPGSHIDFAVNRLKLAEILYYKILETIMVQETRRLHGMDMSVLLEQDIFHKSLMACCLEIVLFAYSSPRTFPWIIEVLDLQPFYFYKVIEVVIRSEEGLSRDMVKHLNSIEEQILESLAWTNNSALWEALHASANRVPSCEEVIFPNNFEIGNGGNVQGHLPMMPMSPIIHPRVKEVRTDSGSLRQDMQPLSPISVHERYSSPAAGSAKRRLFGDDPPKDTLMDKIMAEGTKLKIAPSSVTAESLSISPGQALLTMATTTVTGTTGRKVTVPLHGIANDAGEITLVPISMNPTQESTAESPVSLTAQSLIGTSPKQTHLTKAQDAHLTGVSKPKRTGSLALFYRKVYHLASVRLRDLCLKLDVSNELRRKIWTCFEFTLVHCPDLMKDRHLDQLLLCAFYIMAKVTKEERTFQEIMKSYRNQPQANSHVYRSVLLKSIPGGVVVYNGDCEMTDGDIEDATKTPNCSSEPVKEERGDLIKFYNTVYVGRVKSFALKYDLSNQDHIMDAPPLSPFPHIKQQPGSPRRISQQHSLYVSPHKNGAGLTPRSALLYKFNGSPSKSLKDINNMIRQGEQKTKKRVIAISGDADSPAKRLCQENDDVLLKRLQDVVSERANH
Regarding B1, the binding entry in assay [1] is on record as “no binding”.

B2: LIN54 (protein, UniProt Q571G4 1-749)
chain: MEVVPAEVNSLLPDDIMDTAITLVDEDSIEAVIVSSPIPMETELEEIVNINSTGDSTATPISTEPITVYSNHTNQVAVNTTVSKADSNTTVKPAFPSGLQKLGAQTPVTISANQIILNKVSQTSDLKLGNQTLKPDGQKLILTTLGKSGSPIVLALPHSQLPQAQKVTAQAQPGDAKLPPQQIKVVTIGGRPEVKPVIGVSALTPGSQLINTTTQPSVLQTQQLKTVQIAKKPRTPTSGPVITKLIFAKPINSKAVTGQTTQASPPVVTGRVLSQSTPGTPSKTITISESGVIGSTLNSTTQTPNKIAISPLKSPNKTVKSAVQTITVGGMSTSQFKTIIPLATAPNVQQIQVPGSKFHYVRLVTATTASSSAQPVSQSPSVNTQPLQQAKPVVVNTTPVRMSVPFVQAQAVKQVVPKPINSTSQIVTTSQPQQRLIMPATPLPQIQPNLTNLPPGTVLAPAPGTGNVGYAVLPAQYVTQLQQSSYVSIASNSNFTGTSGIQTQARLPFNGIIPSESTSRPRKPCNCTKSLCLKLYCDCFANGEFCNNCNCTNCYNNLEHENERQKAIKACLDRNPEAFKPKIGKGKEGESDRRHSKGCNCKRSGCLKNYCECYEAKIMCSSICKCIGCKNFEESPERKTLMHLADAAEVRVQQQTAAKTKLSSQISDLLTRPTPALNSAGGKLPFTFVTKEVAEATCNCLLAQAEQADKKGKSKAAAERMILEEFGRCLMSVINSAGKAKSDPCAMHC
B2: the binding result in assay [2] is “binds”.

B3: LIN37 (protein, UniProt Q9D8N6 1-246)
chain: MFPVKVKVEKSEMEMAKARNQLDAVLQCLLEKSHMDRERLDEEAGKTPLDTHNKDCSIAATGKRPSARFPHQRRKKRREMDDGLAEGGPQRSNTYVIKLFDRSVDLAQFSENTPLYPICRAWMRNSPTVRERERSPGSPLPPLPEDGEGSEVINSKNRDVYKLPPPTAPGPLGDACRSRIPSPLQPETEGTPDDEPSEPEPSPSTLIYRNMQRWKRIRQRWKEASHRNQLRYSESMKILREMYDRQ
As to B3, the binding entry in assay [2] was “binds”.

The values above are taken from publication PMC3647048.
